From paper PMC8599755
These are yes or no findings as the source states them, for the method shown. In cells and extracts the contact can be indirect. Here binding means that the protein was enriched with, or labelled near, the bait; the list need not be complete. Where a sequence is shown, tags or fusion partners need not be part of it.

Biological target: T1, APEX2-RBM6 fusion (human (endogenous in MCF10A)) (UniProt P78332)
T1 sequence: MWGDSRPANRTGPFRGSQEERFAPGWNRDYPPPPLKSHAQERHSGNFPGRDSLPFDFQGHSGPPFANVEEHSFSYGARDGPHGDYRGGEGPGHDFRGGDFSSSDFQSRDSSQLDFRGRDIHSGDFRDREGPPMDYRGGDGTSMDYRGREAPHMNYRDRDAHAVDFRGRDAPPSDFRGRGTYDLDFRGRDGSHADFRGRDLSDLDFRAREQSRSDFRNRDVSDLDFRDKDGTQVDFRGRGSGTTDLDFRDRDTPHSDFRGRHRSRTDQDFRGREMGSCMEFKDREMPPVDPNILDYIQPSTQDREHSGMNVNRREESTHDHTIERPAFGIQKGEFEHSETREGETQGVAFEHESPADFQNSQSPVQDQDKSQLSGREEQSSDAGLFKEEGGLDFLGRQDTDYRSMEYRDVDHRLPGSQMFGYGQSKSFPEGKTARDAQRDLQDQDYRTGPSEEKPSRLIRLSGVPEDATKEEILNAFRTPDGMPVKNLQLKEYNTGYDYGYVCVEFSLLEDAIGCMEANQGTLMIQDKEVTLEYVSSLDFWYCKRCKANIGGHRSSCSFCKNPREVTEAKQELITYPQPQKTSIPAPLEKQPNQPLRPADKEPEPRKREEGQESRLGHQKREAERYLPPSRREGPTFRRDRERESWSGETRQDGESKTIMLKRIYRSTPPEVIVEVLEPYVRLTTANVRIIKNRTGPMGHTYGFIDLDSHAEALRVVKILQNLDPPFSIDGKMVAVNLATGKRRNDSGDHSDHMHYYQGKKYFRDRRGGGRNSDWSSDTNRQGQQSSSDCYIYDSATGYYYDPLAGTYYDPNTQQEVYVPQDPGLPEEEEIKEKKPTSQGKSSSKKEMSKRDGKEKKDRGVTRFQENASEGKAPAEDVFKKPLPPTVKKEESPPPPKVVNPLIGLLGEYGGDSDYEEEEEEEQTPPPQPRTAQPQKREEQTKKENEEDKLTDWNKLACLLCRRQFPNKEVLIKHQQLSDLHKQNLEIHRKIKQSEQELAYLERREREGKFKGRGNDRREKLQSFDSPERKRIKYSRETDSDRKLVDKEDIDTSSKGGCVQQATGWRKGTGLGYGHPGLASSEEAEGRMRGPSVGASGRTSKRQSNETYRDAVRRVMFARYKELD
Experiment: proximity labelling; APEX2-RBM6 in MCF10A cells; biotin-phenol, activation with H2O2; biotinylated proteins isolated and subjected to mass spectrometry; compared with control MCF10A cells

B1: RNPS1 (protein, UniProt Q15287 1-305)
chain: MDLSGVKKKSLLGVKENNKKSSTRAPSPTKRKDRSDEKSKDRSKDKGATKESSEKDRGRDKTRKRRSASSGSSSTRSRSSSTSSSGSSTSTGSSSGSSSSSASSRSGSSSTSRSSSSSSSSGSPSPSRRRHDNRRRSRSKSKPPKRDEKERKRRSPSPKPTKVHIGRLTRNVTKDHIMEIFSTYGKIKMIDMPVERMHPHLSKGYAYVEFENPDEAEKALKHMDGGQIDGQEITATAVLAPWPRPPPRRFSPPRRMLPPPPMWRRSPPRMRRRSRSPRRRSPVRRRSRSPGRRRHRSRSSSNSSR
  binding: binds
